The full ranking holds about 3,200 compounds; the median of “TSA(with NAD+) / Primary screening (TSA) / delta Tm (K)” is about -0.04, and the highest 2% start at about 0.37. The list shows a part of the results.

Sequences of proteins named here, by UniProt entry; tags and fusion partners are left off. Residues count along the entry.
UniProt Q96EB6, 2-747 limits assumed: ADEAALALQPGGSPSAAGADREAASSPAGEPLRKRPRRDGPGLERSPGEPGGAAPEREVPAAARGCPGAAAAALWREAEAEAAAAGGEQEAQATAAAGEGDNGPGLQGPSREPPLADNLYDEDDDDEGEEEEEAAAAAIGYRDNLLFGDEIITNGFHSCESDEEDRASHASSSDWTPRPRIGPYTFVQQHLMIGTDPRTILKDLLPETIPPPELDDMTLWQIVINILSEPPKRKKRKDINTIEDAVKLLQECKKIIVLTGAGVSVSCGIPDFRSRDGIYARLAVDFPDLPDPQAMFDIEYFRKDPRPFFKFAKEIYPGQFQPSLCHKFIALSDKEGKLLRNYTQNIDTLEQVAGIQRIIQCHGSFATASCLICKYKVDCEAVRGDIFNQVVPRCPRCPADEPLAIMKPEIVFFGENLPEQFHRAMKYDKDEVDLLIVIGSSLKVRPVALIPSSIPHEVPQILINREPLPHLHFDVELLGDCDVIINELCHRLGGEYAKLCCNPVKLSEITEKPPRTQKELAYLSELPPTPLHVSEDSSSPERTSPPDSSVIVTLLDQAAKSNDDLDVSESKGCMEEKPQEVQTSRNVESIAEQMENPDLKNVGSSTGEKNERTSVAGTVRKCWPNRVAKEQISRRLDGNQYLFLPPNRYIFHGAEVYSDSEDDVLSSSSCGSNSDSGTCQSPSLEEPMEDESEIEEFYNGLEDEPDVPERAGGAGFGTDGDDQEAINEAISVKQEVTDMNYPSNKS

The experiment concerns the target NAD-dependent deacetylase Sirtuin 1 (human, UniProt Q96EB6). Briefly: primary screen, delta tm. Further details: single well (n = 1, as 'the same TSA'). The settings on record: 10 µM.
Take `COc1cccc(-c2nc(CSc3nnc(-c4ccco4)n3Cc3ccccc3)cs2)c1`: the “TSA(with NAD+) / Primary screening (TSA) / delta Tm (K)” value is on record as -0.16 K. Consider `O=c1cc(Cn2nnc3ccccc3c2=O)c2cc3c(cc2o1)CCC3`, for which the “TSA(with NAD+) / Primary screening (TSA) / delta Tm (K)” value is -0.12 K.

Take `CS(=O)(=O)c1ccc(NCCNC(=O)C23CC4CC(C2)CC(c2ccccc2)(C4)C3)c([N+](=O)[O-])c1`: the “TSA(with NAD+) / Primary screening (TSA) / delta Tm (K)” value is reported as 0.18 K. On to `COc1ccc(-c2cc(C(=O)Nc3cc(Cl)ccc3C#N)c3ccccc3n2)cc1OC`, for which the “TSA(with NAD+) / Primary screening (TSA) / delta Tm (K)” value is on record as -0.02 K. For `CC(C)(CNS(=O)(=O)c1ccc(C(N)=O)cc1)c1ccc2c(c1)OCO2` the value was -0.03 K; for `Cc1cc(C(=O)N2CCN(C(=O)Nc3cccc(NC(=O)c4ccncc4)c3)CC2)c(C)o1`, 0.09 K. For `O=C(CSc1nnc(Cc2ccccc2)o1)N1N=C(c2cccs2)CC1c1cccs1` (stereo not drawn) the value was 0.15 K; for `Clc1cc(Cl)cc(NC(c2cccnc2)c2ncc[nH]2)c1` (stereo not drawn), -0.23 K; for `CCOc1ccc(C(=O)C2=C(O)C(=O)N(CCCN3CCOCC3)C2c2ccccn2)cc1` (stereo not drawn), -0.02 K.

As to `CCS(=O)CCN` (stereo not drawn), the “TSA(with NAD+) / Primary screening (TSA) / delta Tm (K)” value is listed as -0.15 K. For `Cc1ccc2nc(-c3ccccc3)c(N)n2c1` the value was 0.38 K. The value for `COc1ccc(-c2cc(C(=O)Nc3ccc(C(N)=O)cc3)c3ccccc3n2)cc1` was 0.02 K; that for `CN(C(=O)Cc1ccc(-c2ccccc2)cc1)C1CCc2ccccc21` (stereo not drawn) was -0.13 K; that for `CC(C)(C)c1ccc(OCC(=O)NNC(=O)c2cccnc2O)cc1` was 0.16 K.

In the case of `CC(=O)Nc1ccc(CNC(=O)c2c(C)[nH]c3ccccc23)cc1`, the “TSA(with NAD+) / Primary screening (TSA) / delta Tm (K)” value is -0.01 K.

Consider `O=C(CCCCc1c[nH]nn1)Nc1cccn(Cc2ccc(F)cc2)c1=O`, for which the “TSA(with NAD+) / Primary screening (TSA) / delta Tm (K)” value turned out to be 0.03 K.

Regarding `O=C(NCc1ccc(N2CCCC2=O)cc1)c1ccc(NC(=O)C2CC2)s1`, the “TSA(with NAD+) / Primary screening (TSA) / delta Tm (K)” value is 0.03 K.

For `O=C(NCc1nc2ccccc2[nH]1)/C(=C/c1ccccc1)c1ccccc1`, the “TSA(with NAD+) / Primary screening (TSA) / delta Tm (K)” value came out at 0.06 K.

In the case of `CC(=O)N1CCc2[nH]c3ccc(C)cc3c2C1`, the “TSA(with NAD+) / Primary screening (TSA) / delta Tm (K)” value is -0.14 K.

`O=C1/C(=C\c2ccc(Br)cc2)CC/C1=C/c1ccccc1OC(F)F`: the “TSA(with NAD+) / Primary screening (TSA) / delta Tm (K)” value stood at 0.05 K. For `CC(=O)NCc1ccc(-c2csc(NC(=O)C(C)NC(=O)c3cccs3)n2)o1` (stereo not drawn) the value was -0.01 K.

Consider `CC(CN)CO` (stereo not drawn), for which the “TSA(with NAD+) / Primary screening (TSA) / delta Tm (K)” value was -0.11 K. The value for `O=C(CN1CCCC1=O)Nc1ccc2nc(S)[nH]c2c1` was -0.14 K. As to `Cc1cccc(C(=O)Oc2ccc3oc4ccccc4c3c2)c1`, the “TSA(with NAD+) / Primary screening (TSA) / delta Tm (K)” value is on record as -0.16 K. As to `CC1(c2cccc(C(N)=O)c2)NC(=O)NC1=O` (stereo not drawn), the “TSA(with NAD+) / Primary screening (TSA) / delta Tm (K)” value is on record as -0.01 K. For `CCC(C)c1ccc(C(NC(C)C(=O)Nc2ccc(C(N)=O)cc2)C(C)C)cc1` (stereo not drawn) the value was -0.11 K. For `COC(=O)c1ccc(Cn2ncc3ccccc3c2=O)cc1`, the “TSA(with NAD+) / Primary screening (TSA) / delta Tm (K)” value is reported as -0.01 K.

For `COc1cccc(CNC(=O)COC(=O)CNC(=O)c2ccc3ccccc3c2)c1`, the “TSA(with NAD+) / Primary screening (TSA) / delta Tm (K)” value was -0.03 K.

For the compound `CC(C)OC(=O)CC(Nc1ccc2nnnn2n1)c1ccccc1` (stereo not drawn), the “TSA(with NAD+) / Primary screening (TSA) / delta Tm (K)” value is listed as -0.22 K. As to `NC(=O)N1CCCN(C(=O)c2ccc3c(c2)C(=O)c2ccccc2-3)CC1`, the “TSA(with NAD+) / Primary screening (TSA) / delta Tm (K)” value was -0.14 K. The value for `C=CCc1c(C)c(C#N)c2nc3ccccc3n2c1Cl` was -0.09 K. On to `O=C(CN1CCN(C(=O)c2ccccc2Nc2ccccc2)CC1)Nc1ccccc1Cl`, for which the “TSA(with NAD+) / Primary screening (TSA) / delta Tm (K)” value is -0.38 K. For `COc1ccc2ccccc2c1C=C1C(=O)NC(=S)NC1=O` the value was -0.15 K; for `CC1CC1C(=O)Nc1ccc(C(=O)NCc2nc3cccnc3[nH]2)cc1` (stereo not drawn), -0.13 K. For `NCC(N)C1CC1` (stereo not drawn) the value was -0.21 K. The value for `CCOc1ccc(Nc2cc(C)nc3c4c(C)cc(C)nc4nn23)cc1` was -0.03 K; that for `CCC(C)N` (stereo not drawn) was -0.01 K.

In the case of `CCC(O)(CC)CN`, the “TSA(with NAD+) / Primary screening (TSA) / delta Tm (K)” value was -0.05 K. The value for `CC(C)COc1ccc(C(=O)C2=C(O)C(=O)N(CCN3CCOCC3)C2c2ccc(F)cc2)cc1` (stereo not drawn) was 0.07 K. As for `CN(c1ccccc1)S(=O)(=O)c1cccc(C(=O)Nc2sccc2C(N)=O)c1`, the “TSA(with NAD+) / Primary screening (TSA) / delta Tm (K)” value is listed as 0.22 K. For `CONC(=O)c1c(-c2ccccc2)n(C)c2ccccc12` the value was -0.01 K; for `Cc1ccc(C2(c3ccc(C)cc3)NC(=O)N(CC(=O)NC34CC5CC(CC(C5)C3)C4)C2=O)cc1`, -0.04 K; for `O=C(CSc1nnc(NCc2ccco2)s1)N(c1ccccc1)C1CCS(=O)(=O)C1` (stereo not drawn), -0.12 K. The value for `CNc1ncc(C(F)(F)F)cc1Cl` was -0.21 K; that for `O=C(O)c1cccc(C(=O)O)n1` was 0.09 K; that for `C=CCOc1ccc(/C=C/C(=O)NC(Cc2ccccc2)c2nc3ccccc3[nH]2)cc1` (stereo not drawn) was 0.02 K. Take `O=C(NCc1ccccc1O)c1ccc2c(c1)C(=O)c1ccccc1-2`: the “TSA(with NAD+) / Primary screening (TSA) / delta Tm (K)” value was -0.03 K. The value for `O=C(NC(Cc1ccccc1)C(=O)N1CCCCCCC1)c1ccccc1` (stereo not drawn) was -0.14 K.

The record behind these values is paper PMC6925144, “A prospective compound screening contest identified broader inhibitors for Sirtuin 1” (Scientific Reports, 2019).
